Source: PubChem BioAssay AID1259424 (University of Nebraska Medical Center, 2018)
Shown is one part, drawn at random, of about 14,000 deposited reagents. 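Higher correlation or smaller distance means closer resemblance to KSR1 loss; control wells, including KSR1 knockdowns, recur on many plates.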 Further read-outs or replicates are left out here. Not stated in the record: the time to read-out.

Assay: 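Seek colon cancer survival genes behaving like KSR1, using a six-gene signature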 (primary screen)
Cell system: human HCT116 colon cancer cells
Reagent: siRNA pool against human genes, 50 nM
Read-out: 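Six signature mRNAs by branched-DNA multiplex assay, scaled to two housekeeping genes and non-targeting median, log2; matched to mean KSR1 knockdown profile by Pearson correlation and euclidean distance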
Direction: mean correlation with KSR1 profile: higher = expression change more like KSR1 knockdown; mean distance from KSR1 profile: higher = expression change less like KSR1 knockdown

{"gene":"EMP3 (epithelial membrane protein 3 (MAM blood group))","mean correlation with KSR1 profile":0.263,"mean distance from KSR1 profile":1.47}
{"gene":"TGM1 (transglutaminase 1)","mean correlation with KSR1 profile":-0.0325,"mean distance from KSR1 profile":1.34}
{"gene":"UCK2 (uridine-cytidine kinase 2)","mean correlation with KSR1 profile":-0.0583,"mean distance from KSR1 profile":3.35}
{"gene":"MON2 (MON2 regulator of endosome-to-Golgi trafficking)","mean correlation with KSR1 profile":-0.0466,"mean distance from KSR1 profile":1.23}
{"gene":"CAMKV (CaM kinase like vesicle associated)","mean correlation with KSR1 profile":0.00586,"mean distance from KSR1 profile":2.85}
{"gene":"ADAMDEC1 (ADAM like decysin 1)","mean correlation with KSR1 profile":-0.259,"mean distance from KSR1 profile":1.94}
{"gene":"NR3C1 (nuclear receptor subfamily 3 group C member 1)","mean correlation with KSR1 profile":0.718,"mean distance from KSR1 profile":1.43}
{"gene":"MYEF2 (myelin expression factor 2)","mean correlation with KSR1 profile":-0.474,"mean distance from KSR1 profile":2.51}
{"gene":"ANXA1 (annexin A1)","mean correlation with KSR1 profile":-0.139,"mean distance from KSR1 profile":1.16}
{"gene":"OSTM1 (osteoclastogenesis associated transmembrane protein 1)","mean correlation with KSR1 profile":-0.353,"mean distance from KSR1 profile":3.59}
{"gene":"HLA-DRB5 (major histocompatibility complex, class II, DR beta 5)","mean correlation with KSR1 profile":-0.0855,"mean distance from KSR1 profile":2.09}
{"gene":"TM2D2 (TM2 domain containing 2)","mean correlation with KSR1 profile":0.661,"mean distance from KSR1 profile":2.25}

2 entries from above, showing only “mean correlation with KSR1 profile”:
ANXA1 (annexin A1) = -0.139
OSTM1 (osteoclastogenesis associated transmembrane protein 1) = -0.353

The results go on:
{"gene":"CHAD (chondroadherin)","mean correlation with KSR1 profile":-0.075,"mean distance from KSR1 profile":2.04}
{"gene":"PPFIA3 (PPFI scaffold protein A3)","mean correlation with KSR1 profile":0.403,"mean distance from KSR1 profile":1.22}
{"gene":"MAP3K7CL (MAP3K7 C-terminal like)","mean correlation with KSR1 profile":-0.113,"mean distance from KSR1 profile":3.51}
{"gene":"OPN1SW (opsin 1, short wave sensitive)","mean correlation with KSR1 profile":0.491,"mean distance from KSR1 profile":3.75}
{"gene":"CAMP (cathelicidin antimicrobial peptide)","mean correlation with KSR1 profile":0.0738,"mean distance from KSR1 profile":2.35}
{"gene":"PIK3R2 (phosphoinositide-3-kinase regulatory subunit 2)","mean correlation with KSR1 profile":-0.0887,"mean distance from KSR1 profile":3.4}
{"gene":"IL16 (interleukin 16)","mean correlation with KSR1 profile":0.412,"mean distance from KSR1 profile":1.17}
